Reference: PMC8983672
No constants are given. Whether binding was seen depends on the method and setting. In cells and extracts the contact can be indirect. A yes stands for co-enrichment or nearness to the bait. Other partners may have been found.

Chains of the proteins cited; added tags and fusions are not shown.
UniProt P47936: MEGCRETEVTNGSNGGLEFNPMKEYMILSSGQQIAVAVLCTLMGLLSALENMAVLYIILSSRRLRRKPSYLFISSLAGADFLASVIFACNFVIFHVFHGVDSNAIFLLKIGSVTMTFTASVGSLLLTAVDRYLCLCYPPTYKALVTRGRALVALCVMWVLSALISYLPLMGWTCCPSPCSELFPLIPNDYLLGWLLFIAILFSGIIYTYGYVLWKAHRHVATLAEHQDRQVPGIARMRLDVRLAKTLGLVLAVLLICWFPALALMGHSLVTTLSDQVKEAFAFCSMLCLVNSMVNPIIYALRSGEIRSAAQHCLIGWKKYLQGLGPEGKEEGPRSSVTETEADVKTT
UniProt P52332: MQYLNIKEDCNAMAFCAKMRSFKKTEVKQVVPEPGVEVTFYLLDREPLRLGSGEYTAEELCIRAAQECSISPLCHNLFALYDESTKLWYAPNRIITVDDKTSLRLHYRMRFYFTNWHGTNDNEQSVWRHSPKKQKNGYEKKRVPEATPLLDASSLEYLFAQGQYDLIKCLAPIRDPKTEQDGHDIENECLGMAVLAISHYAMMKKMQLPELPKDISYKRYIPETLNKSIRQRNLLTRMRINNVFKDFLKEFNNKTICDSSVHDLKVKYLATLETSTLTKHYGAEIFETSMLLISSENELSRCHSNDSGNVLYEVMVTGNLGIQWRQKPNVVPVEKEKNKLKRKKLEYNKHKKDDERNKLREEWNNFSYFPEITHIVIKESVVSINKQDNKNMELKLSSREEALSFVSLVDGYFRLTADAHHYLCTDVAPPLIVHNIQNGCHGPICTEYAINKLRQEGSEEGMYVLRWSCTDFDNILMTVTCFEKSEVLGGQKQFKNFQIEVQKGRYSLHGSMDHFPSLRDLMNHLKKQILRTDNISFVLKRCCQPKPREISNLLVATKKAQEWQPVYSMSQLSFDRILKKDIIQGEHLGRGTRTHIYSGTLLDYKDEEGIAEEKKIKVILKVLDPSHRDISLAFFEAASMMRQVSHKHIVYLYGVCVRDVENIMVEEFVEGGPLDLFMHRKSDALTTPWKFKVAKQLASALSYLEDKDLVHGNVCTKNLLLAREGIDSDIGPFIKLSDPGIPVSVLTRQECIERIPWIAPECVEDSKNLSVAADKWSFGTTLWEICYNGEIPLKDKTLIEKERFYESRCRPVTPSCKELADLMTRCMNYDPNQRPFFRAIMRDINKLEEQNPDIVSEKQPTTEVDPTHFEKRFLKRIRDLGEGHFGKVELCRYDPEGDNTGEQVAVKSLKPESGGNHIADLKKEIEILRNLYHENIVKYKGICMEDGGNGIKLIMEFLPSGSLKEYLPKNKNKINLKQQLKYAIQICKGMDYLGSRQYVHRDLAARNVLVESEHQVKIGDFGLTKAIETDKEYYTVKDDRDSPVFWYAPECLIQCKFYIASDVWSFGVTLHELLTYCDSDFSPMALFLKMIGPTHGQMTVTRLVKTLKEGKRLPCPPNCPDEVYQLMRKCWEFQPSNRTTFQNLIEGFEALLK

Molecular target: FLAG-tagged CNR2 (cannabinoid receptor 2) from Cnr2-2×Flag-IRES-Egfp^flox/flox knock-in mice (mouse) (UniProt P47936)
Assay: affinity purification with mass spectrometry; lysate of sorted CD8+GFP+ T cells of Cnr2-2×Flag knock-in mice; anti-FLAG M2 affinity gel against mouse IgG beads, overnight at 4 °C; silver-stained bands found only in the FLAG group cut out, LC-MS/MS

Substance: JAK1 (from UniProt P52332 1-1153) (enzyme)
- binding: binds
